Patent publication US8461328B2, “Tricyclic heterocyclic compounds, compositions and methods of use thereof” (Genentech, Inc., priority 2010, dated 2013)
Some entries share one result that the patent states for a list of compounds.

Protein sequences, listed by entry. Tags and fused reporters are not part of them. Residues count along the entry.
UniProt P23458, 852-1154: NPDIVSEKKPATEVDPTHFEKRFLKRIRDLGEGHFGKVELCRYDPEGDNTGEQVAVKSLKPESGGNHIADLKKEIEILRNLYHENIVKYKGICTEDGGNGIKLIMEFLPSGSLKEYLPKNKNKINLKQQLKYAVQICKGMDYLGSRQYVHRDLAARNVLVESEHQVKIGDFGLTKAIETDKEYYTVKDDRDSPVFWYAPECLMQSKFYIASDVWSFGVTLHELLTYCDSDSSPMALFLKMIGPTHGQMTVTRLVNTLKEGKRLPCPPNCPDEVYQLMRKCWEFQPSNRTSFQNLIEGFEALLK

Molecular target: T1, human JAK1 kinase domain (Homo sapiens, UniProt P23458)
T1 construct: made in house; host or cells: SF9 insect cells (baculovirus)
Assay: JAK1 inhibition assay (Example B), Caliper LabChip peptide phosphorylation
Assay type: biochemical
Settings: 1.5 nM JAK1, 25 μM ATP, Morrison tight binding model; read-out: Ki in a JAK1 kinase activity assay (Example B)

| SMILES | Ki [nM] |
| --- | --- |
| CC1(COC(=O)N[C@H]2CC[C@H](n3cnc4cnc5[nH]ccc5c43)CC2)CC1 [Example 348, [4-(6H-1,3,5,6-Tetraaza-as-indacen-1-yl)-cyclohexyl]-carbamic acid 1-methyl-cyclopropylmethyl ester] | < 500 |
| CC(C)(C)OC(=O)N1CCC[C@@H](n2cnc3cnc4[nH]ccc4c32)C1 [Example 349, (R)-3-(6H-1,3,5,6-Tetraaza-as-indacen-1-yl)-piperidine-1-carboxylic acid tert-butyl ester] | < 500 |
| COC(=O)N[C@H]1CC[C@H](n2nnc3cnc4[nH]ccc4c32)CC1 [Example 353, [4-(6H-1,2,3,5,6-Pentaaza-as-indacen-1-yl)-cyclohexyl]-carbamic acid methyl ester] | < 500 |
| COCCOC(=O)N[C@H]1CC[C@H](n2cnc3cnc4[nH]ccc4c32)CC1 [Example 356, [4-(6H-1,3,5,6-Tetraaza-as-indacen-1-yl)-cyclohexyl]-carbamic acid 2-methoxy-ethyl ester] | < 500 |
| O=S(=O)(c1ccccc1)N1CCC[C@@H](n2cnc3cnc4[nH]ccc4c32)C1 [Example 359, 1-((R)-1-Benzenesulfonyl-piperidin-3-yl)-1,6-dihydro-1,3,5,6-tetraaza-as-indacene] | < 500 |
| CS(=O)(=O)N1CCC(n2c(-c3cccnc3)nc3cnc4[nH]ccc4c32)CC1 [Example 361, 1-(1-Methanesulfonyl-piperidin-4-yl)-2-pyridin-3-yl-1,6-dihydro-1,3,5,6-tetraaza-as-indacene] | < 500 |
| C[C@@H](O)c1nc2cnc3[nH]ccc3c2n1[C@@H]1CCCN(CCC#N)C1 [Example 362, 3-{(R)-3-[2-((R)-1-Hydroxy-ethyl)-6H-1,3,5,6-tetraaza-as-indacen-1-yl]-piperidin-1-yl}-propionitrile] | < 500 |
| c1cc2c(ncc3ncn([C@H]4CCCNC4)c32)[nH]1 [Example 364, (S)-1-Piperidin-3-yl-1,6-dihydro-1,3,5,6-tetraaza-as-indacene] | < 500 |
| COCCC(=O)NCCc1nc2cnc3[nH]ccc3c2n1C1CCN(CCC#N)CC1 [Example 371, N-(2-{1-[1-(2-Cyano-ethyl)-piperidin-4-yl]-1,6-dihydro-1,3,5,6-tetraaza-as-indacen-2-yl}-ethyl)-3-methoxy-propionamide] | < 500 |
| N#CCCN1CCC(n2c(CCNC(=O)c3ccc(F)cc3)nc3cnc4[nH]ccc4c32)CC1 [Example 373, N-(2-{1-[1-(2-Cyano-ethyl)-piperidin-4-yl]-1,6-dihydro-1,3,5,6-tetraaza-as-indacen-2-yl}-ethyl)-4-fluoro-benzamide] | < 500 |
| CC(C)(C)C(=O)NCCc1nc2cnc3[nH]ccc3c2n1C1CCN(CCC#N)CC1 [Example 374, N-(2-{l-[l-(2-Cyano-ethyl)-piperidin-4-yl]-1,6-dihydro-1,3,5,6-tetraaza-as-indacen-2-yl}-ethyl)-2,2-dimethyl-propionamide] | < 500 |
| N#CCCN1CCC(n2c(CCNC(=O)C3CCC3)nc3cnc4[nH]ccc4c32)CC1 [Example 375, Cyclobutanecarboxylic acid (2-{1-[1-(2-cyano-ethyl)-piperidin-4-yl]-1,6-dihydro-1,3,5,6-tetraaza-as-indacen-2-yl}-ethyl)-amide] | < 500 |
| CC(C)C(=O)NCCc1nc2cnc3[nH]ccc3c2n1C1CCN(CCC#N)CC1 [Example 378, N-(2-{1-[1-(2-Cyano-ethyl)-piperidin-4-yl]-1,6-dihydro-1,3,5,6-tetraaza-as-indacen-2-yl}-ethyl)-isobutyramide] | < 500 |
| CC(=O)NCCc1nc2cnc3[nH]ccc3c2n1C1CCN(CCC#N)CC1 [Example 379, N-(2-{1-[1-(2-Cyano-ethyl)-piperidin-4-yl]-1,6-dihydro-1,3,5,6-tetraaza-as-indacen-2-yl}-ethyl)-acetamide] | < 500 |
| N#CCCN1CCC(n2c(CCNC(=O)c3ccccc3)nc3cnc4[nH]ccc4c32)CC1 [Example 380, N-(2-{1-[1-(2-Cyano-ethyl)-piperidin-4-yl]-1,6-dihydro-1,3,5,6-tetraaza-as-indacen-2-yl}-ethyl)-benzamide] | < 500 |
| NC(=O)Cc1nc2cnc3[nH]ccc3c2n1C1CCN(S(=O)(=O)C2CC2)CC1 [Example 382, 2-[1-(1-Cyclopropanesulfonyl-piperidin-4-yl)-1,6-dihydro-1,3,5,6-tetraaza-as-indacen-2-yl]-acetamide] | < 500 |

Now from value to compound:

| Ki [nM] | SMILES |
| --- | --- |
| < 500 | Cc1nc2cnc3[nH]ccc3c2n1C1CCN(CC(O)(C(F)(F)F)C(F)(F)F)CC1 [Example 354, 1,1,1,3,3,3-Hexafluoro-2-[4-(2-methyl-6H-1,3,5,6-tetraaza-as-indacen-1-yl)-piperidin-1-ylmethyl]-propan-2-ol] |
| < 500 | CN(C)CCOC(=O)N[C@H]1CC[C@H](n2cnc3cnc4[nH]ccc4c32)CC1 [Example 358, [4-(6H-1,3,5,6-Tetraaza-as-indacen-1-yl)-cyclohexyl]-carbamic acid 2-dimethylamino-ethyl ester] |
| < 500 | N#Cc1ccc(S(=O)(=O)N2CCC[C@@H](n3cnc4cnc5[nH]ccc5c43)C2)cc1 [Example 360, 4-[(R)-3-(6H-1,3,5,6-Tetraaza-as-indacen-1-yl)-piperidine-1-sulfonyl]-benzonitrile] |
| < 500 | Cc1nc2cnc3[nH]ccc3c2n1C1CCN(C2COC2)CC1 [Example 363, 2-Methyl-1-(1-oxetan-3-yl-piperidin-4-yl)-1,6-dihydro-1,3,5,6-tetraaza-as-indacene] |
| < 500 | N#CCCN1CCC(n2c(CCNS(=O)(=O)C3CC3)nc3cnc4[nH]ccc4c32)CC1 [Example 370, Cyclopropanesulfonic acid (2-{1-[1-(2-cyano-ethyl)-piperidin-4-yl]-1,6-dihydro-1,3,5,6-tetraaza-as-indacen-2-yl}-ethyl)-amide] |
| < 500 | COCC(=O)NCCc1nc2cnc3[nH]ccc3c2n1C1CCN(CCC#N)CC1 [Example 372, N-(2-{1-[1-(2-Cyano-ethyl)-piperidin-4-yl]-1,6-dihydro-1,3,5,6-tetraaza-as-indacen-2-yl}-ethyl)-2-methoxy-acetamide] |
| < 500 | CC(C)CC(=O)NCCc1nc2cnc3[nH]ccc3c2n1C1CCN(CCC#N)CC1 [Example 376, N-(2-{1-[1-(2-Cyano-ethyl)-piperidin-4-yl]-1,6-dihydro-1,3,5,6-tetraaza-as-indacen-2-yl}-ethyl)-3-methyl-butyramide] |
| < 500 | N#CCCN1CCC(n2c(CCNC(=O)C3CC3)nc3cnc4[nH]ccc4c32)CC1 [Example 377, Cyclopropanecarboxylic acid (2-{1-[1-(2-cyano-ethyl)-piperidin-4-yl]-1,6-dihydro-1,3,5,6-tetraaza-as-indacen-2-yl}-ethyl)-amide] |
| < 500 | CCCS(=O)(=O)N1CCC(n2c(Cc3conc3C)nc3cnc4[nH]ccc4c32)CC1 [Example 381, 2-(3-Methyl-isoxazol-4-ylmethyl)-1-[1-(propane-1-sulfonyl)-piperidin-4-yl]-1,6-dihydro-1,3,5,6-tetraaza-as-indacene] |
| < 500 | N#CCCN1CCC(n2c(CC3CC3)nc3cnc4[nH]ccc4c32)CC1 [Example 383, 3-[4-(2-Cyclopropylmethyl-6H-1,3,5,6-tetraaza-as-indacen-1-yl)-piperidin-1-yl]-propionitrile] |
